From the supplement of paper PMC10849652 come the findings set out here.

Chains of the proteins cited; added tags and fusions are not shown. Lines headed by an entry give the natural chain unless they say otherwise; changes in a name come on top.
UniProt Q14166: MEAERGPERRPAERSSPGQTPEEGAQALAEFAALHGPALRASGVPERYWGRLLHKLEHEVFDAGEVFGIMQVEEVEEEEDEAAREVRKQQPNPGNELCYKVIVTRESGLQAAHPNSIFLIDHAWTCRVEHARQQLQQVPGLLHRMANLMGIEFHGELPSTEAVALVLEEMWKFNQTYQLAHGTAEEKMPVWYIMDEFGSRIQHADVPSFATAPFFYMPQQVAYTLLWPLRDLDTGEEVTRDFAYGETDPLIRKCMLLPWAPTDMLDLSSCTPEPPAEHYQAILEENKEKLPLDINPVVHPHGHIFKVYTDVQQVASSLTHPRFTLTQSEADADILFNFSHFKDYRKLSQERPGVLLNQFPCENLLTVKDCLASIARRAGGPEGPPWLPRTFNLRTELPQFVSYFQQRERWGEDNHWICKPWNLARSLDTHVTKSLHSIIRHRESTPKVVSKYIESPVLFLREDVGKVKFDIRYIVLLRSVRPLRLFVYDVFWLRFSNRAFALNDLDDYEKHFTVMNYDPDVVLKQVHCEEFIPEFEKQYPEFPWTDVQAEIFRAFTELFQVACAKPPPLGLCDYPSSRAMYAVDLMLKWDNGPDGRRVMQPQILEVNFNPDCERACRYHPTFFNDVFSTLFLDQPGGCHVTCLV
UniProt Q6PID6, whole entry, looked up: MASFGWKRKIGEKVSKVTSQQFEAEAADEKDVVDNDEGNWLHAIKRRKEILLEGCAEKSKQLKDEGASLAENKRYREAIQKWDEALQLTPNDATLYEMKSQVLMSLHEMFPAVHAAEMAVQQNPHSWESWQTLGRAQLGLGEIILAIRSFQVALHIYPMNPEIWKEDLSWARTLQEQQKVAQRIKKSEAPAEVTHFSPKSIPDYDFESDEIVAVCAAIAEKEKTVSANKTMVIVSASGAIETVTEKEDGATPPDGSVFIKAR
UniProt Q9NXH9: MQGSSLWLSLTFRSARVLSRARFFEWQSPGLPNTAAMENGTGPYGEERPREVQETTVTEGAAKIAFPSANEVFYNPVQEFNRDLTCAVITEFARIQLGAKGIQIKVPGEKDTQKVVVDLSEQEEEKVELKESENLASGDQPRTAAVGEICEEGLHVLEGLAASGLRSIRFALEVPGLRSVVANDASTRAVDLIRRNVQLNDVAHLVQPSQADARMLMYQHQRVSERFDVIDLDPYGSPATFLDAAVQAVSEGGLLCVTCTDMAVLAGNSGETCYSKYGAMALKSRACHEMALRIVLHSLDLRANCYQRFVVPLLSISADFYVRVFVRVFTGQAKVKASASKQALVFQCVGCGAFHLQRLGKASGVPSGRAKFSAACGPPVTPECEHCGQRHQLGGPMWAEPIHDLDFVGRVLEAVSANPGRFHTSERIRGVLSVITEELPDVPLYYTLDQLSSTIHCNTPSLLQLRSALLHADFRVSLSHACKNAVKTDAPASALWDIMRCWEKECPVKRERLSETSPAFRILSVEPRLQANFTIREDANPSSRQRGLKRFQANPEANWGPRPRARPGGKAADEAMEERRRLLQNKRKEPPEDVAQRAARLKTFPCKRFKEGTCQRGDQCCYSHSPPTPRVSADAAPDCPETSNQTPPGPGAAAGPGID
UniProt Q9Y5R8, whole entry, looked up: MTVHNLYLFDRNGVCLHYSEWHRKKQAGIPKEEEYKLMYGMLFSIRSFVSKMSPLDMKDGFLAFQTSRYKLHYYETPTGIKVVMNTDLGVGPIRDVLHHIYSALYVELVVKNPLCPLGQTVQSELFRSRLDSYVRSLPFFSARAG
UniProt P49815: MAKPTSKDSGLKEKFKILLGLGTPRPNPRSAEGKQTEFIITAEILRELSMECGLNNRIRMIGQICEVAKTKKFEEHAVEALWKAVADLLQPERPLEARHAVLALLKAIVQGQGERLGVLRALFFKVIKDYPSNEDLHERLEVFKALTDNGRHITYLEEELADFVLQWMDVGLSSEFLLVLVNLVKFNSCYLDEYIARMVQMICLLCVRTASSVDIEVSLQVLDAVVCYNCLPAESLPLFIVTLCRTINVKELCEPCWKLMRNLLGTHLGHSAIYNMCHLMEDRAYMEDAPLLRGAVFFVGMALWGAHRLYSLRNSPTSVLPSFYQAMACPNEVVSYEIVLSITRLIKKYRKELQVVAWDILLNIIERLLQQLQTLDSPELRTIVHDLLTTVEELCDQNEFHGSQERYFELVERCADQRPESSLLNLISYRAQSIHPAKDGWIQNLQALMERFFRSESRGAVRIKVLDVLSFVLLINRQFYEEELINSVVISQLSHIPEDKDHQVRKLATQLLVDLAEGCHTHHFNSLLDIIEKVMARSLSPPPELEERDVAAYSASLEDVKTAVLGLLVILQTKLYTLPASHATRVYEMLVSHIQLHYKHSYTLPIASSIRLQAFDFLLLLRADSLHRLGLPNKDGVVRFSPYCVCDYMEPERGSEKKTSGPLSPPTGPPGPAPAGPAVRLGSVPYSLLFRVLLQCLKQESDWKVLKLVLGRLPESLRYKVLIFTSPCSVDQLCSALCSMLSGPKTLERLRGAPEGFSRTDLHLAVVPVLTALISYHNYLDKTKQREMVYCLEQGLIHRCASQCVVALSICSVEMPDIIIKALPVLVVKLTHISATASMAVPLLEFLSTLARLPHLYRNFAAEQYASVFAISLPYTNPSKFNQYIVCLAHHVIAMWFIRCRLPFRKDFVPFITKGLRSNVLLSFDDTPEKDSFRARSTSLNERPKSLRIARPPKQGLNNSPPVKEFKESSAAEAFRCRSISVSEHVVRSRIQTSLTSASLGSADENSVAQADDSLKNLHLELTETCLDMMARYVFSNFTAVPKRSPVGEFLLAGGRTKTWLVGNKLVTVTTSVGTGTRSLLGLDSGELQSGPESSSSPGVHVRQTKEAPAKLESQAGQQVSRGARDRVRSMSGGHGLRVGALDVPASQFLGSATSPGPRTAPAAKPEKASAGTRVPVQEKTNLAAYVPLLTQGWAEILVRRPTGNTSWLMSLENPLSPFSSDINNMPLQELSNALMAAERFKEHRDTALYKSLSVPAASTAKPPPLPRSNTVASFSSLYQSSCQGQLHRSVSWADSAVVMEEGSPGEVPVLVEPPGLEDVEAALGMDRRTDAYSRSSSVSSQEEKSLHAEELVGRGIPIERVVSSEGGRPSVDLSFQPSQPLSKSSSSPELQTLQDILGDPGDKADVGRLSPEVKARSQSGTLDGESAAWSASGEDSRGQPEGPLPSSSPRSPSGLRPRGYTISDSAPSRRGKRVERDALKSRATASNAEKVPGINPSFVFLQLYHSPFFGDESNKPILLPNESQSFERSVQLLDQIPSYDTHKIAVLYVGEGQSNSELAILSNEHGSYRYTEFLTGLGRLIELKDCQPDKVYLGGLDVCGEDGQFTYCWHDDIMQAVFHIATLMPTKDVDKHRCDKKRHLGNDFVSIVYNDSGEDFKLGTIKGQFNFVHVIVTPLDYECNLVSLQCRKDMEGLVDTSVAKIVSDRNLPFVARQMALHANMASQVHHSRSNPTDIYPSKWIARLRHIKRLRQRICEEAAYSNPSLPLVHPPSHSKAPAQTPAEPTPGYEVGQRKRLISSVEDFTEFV
UniProt Q99816: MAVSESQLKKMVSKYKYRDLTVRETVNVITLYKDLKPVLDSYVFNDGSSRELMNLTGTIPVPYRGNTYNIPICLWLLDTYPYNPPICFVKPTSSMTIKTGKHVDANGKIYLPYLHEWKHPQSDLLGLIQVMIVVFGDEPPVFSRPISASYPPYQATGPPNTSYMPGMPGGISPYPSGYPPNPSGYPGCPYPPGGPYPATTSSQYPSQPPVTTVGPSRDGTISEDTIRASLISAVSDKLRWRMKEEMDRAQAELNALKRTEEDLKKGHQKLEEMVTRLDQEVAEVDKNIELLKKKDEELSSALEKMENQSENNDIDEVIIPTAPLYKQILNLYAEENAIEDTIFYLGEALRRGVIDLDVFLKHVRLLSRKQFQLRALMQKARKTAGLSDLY
UniProt Q9UJA5: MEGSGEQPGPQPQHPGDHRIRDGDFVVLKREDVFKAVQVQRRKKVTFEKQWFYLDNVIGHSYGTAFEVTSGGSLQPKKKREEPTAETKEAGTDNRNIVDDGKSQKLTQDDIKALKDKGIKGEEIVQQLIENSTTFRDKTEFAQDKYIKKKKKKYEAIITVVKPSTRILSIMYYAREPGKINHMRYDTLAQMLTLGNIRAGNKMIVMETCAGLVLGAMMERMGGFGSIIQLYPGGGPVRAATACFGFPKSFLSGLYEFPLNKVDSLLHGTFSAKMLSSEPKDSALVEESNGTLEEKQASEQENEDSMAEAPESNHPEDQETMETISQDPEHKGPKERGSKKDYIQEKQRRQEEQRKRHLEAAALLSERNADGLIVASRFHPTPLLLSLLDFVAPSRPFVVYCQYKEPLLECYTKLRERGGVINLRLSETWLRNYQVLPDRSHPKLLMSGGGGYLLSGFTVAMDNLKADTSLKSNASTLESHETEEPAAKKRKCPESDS
UniProt Q8N0Z6: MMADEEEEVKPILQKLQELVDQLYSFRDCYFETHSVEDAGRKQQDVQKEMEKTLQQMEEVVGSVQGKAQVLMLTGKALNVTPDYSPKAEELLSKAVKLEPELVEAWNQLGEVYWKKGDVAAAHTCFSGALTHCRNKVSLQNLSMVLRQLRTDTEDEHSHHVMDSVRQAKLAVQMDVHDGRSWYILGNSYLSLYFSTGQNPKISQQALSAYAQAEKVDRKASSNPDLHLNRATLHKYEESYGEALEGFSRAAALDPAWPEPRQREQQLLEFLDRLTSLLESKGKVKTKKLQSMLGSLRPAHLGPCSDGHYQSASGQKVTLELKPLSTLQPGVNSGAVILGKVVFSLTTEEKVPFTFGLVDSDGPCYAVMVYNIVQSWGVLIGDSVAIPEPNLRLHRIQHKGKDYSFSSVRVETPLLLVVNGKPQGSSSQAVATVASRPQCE
UniProt Q9UPN9: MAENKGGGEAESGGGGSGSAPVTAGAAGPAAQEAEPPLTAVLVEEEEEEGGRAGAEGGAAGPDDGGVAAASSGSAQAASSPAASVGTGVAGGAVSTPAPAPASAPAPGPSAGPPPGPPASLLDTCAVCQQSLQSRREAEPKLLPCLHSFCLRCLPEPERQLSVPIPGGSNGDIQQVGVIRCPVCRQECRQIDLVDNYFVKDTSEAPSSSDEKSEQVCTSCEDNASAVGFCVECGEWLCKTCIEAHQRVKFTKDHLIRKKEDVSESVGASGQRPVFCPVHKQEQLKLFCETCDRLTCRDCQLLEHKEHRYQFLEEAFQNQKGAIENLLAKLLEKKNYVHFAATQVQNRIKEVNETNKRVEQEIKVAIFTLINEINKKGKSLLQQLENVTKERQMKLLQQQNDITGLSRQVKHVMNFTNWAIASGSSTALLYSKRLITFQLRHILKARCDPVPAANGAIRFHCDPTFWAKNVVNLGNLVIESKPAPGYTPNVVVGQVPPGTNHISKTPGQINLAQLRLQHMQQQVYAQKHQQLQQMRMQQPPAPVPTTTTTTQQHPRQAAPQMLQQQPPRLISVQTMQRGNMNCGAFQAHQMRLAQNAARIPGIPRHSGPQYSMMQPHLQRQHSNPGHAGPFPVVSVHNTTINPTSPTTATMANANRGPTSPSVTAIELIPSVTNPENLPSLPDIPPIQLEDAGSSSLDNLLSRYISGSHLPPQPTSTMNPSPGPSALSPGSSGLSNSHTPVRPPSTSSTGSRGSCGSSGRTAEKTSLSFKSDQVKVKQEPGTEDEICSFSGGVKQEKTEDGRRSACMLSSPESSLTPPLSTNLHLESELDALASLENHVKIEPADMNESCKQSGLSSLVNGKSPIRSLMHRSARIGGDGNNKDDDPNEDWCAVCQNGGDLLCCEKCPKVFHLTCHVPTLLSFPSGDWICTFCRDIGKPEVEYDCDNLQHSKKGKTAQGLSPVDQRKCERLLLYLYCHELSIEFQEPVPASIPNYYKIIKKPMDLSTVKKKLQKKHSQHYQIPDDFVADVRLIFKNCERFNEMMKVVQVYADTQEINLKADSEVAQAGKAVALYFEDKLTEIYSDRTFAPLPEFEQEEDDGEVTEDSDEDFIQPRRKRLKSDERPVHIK
UniProt Q8TBZ6: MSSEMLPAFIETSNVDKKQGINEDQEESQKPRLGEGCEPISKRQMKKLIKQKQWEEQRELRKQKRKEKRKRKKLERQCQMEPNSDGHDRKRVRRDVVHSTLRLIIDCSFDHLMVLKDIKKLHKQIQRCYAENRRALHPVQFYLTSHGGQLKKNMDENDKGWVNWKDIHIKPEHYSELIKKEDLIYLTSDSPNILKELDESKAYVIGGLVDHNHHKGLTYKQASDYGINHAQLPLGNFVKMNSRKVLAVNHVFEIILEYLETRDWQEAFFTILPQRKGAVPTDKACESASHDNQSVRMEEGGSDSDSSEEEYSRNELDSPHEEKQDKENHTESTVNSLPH
UniProt Q96FX7: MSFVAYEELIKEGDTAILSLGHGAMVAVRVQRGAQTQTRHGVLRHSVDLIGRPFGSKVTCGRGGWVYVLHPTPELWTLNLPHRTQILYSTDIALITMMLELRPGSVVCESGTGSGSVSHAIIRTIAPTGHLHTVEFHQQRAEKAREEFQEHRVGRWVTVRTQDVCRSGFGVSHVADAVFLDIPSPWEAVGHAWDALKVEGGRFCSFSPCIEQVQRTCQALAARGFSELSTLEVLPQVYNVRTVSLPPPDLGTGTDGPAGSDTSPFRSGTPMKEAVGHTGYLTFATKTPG

The list shows a part of the results.

Compound in this assay: CC(C)C1=C2N=C(C=C(N2N=C1)NCC3=CC=CC=C3)NCCCCCCN
In words: log2 fold change, soluble protein after heating vs DMSO (PISA); higher = thermal stabilisation; K562 lysate, 10 uM; active = over 0.2 and 3.5 SD of the protein, either way, in both replicates (recomputed). The gist of the method:
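K562 pellets were dounce-homogenised in PBS pH 7.4 containing 1 mM MgCl2, and the crude extract, at 1 mg/mL protein, was exposed to 10 μM compound for 30 min. Aliquots were heated for 3 min across 48°C-58°C, pooled, brought to 0.5% NP-40 at 4°C and spun at 21,000xg for 90 min, with the supernatant taken as soluble protein. TMTpro 16plex LC-MS/MS with equalised channel sums quantified that protein. Values are log-two fold changes in thermal stability relative to solvent controls, taken from duplicates.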
In the case of TTLL12 (UniProt Q14166), the log2 fold change is inactive: 0.044.
The figure for TTC33 (UniProt Q6PID6) is inactive: -0.017; for TRMT1 (UniProt Q9NXH9) it is inactive: -0.026.
As for TRAPPC1 (UniProt Q9Y5R8), the log2 fold change was inactive: -0.001.
Take TRPC4AP (UniProt Q8TEL6): the log2 fold change was inactive: 0.007.
Under TSC2 isoform 4 (UniProt P49815) stands inactive: 0.043; under TSEN15 (UniProt Q8WW01), inactive: -0.05.
Regarding TRUB1 (UniProt Q8WWH5), the log2 fold change is inactive: 0.037.
Under TSG101 (UniProt Q99816) stands inactive: 0.004.
Under TTI1 (UniProt O43156) stands inactive: -0.029; under TTL (UniProt Q8NG68), inactive: 0.018; under TRMT6 (UniProt Q9UJA5), inactive: 0.017.
Under TTC5 (UniProt Q8N0Z6) stands inactive: 0.042; under TRIM33 isoform 2 (UniProt Q9UPN9), inactive: -0.026.
As for TRNAU1AP (UniProt Q9NX07), the log2 fold change is inactive: 0.039.
Under TTI2 (UniProt Q6NXR4) stands inactive: -0.004; under TRMT5 (UniProt Q32P41), inactive: 0.005.
Under TRIT1 (UniProt Q9H3H1) stands inactive: 0.025.
Under TRMT10A (UniProt Q8TBZ6) stands inactive: -0.033.
Regarding TRAP1 (UniProt Q12931), the log2 fold change was inactive: -0.018.
As for TSPAN14 (UniProt Q8NG11), the log2 fold change was inactive: -0.019.
The figure for TRMT61A (UniProt Q96FX7) is inactive: -0.019; for TRMT61B (UniProt Q9BVS5) it is inactive: -0.002.
